Taken from: PubChem BioAssay AID504795 (Drosophila RNAi Screening Center, 2011)
Aim: 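Fly genes whose loss alters neurite growth or neural cell form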 (primary screen). System: primary Drosophila neurons and glia. Reagents: long dsRNA against Drosophila genes, 250 ng dsRNA per well. Duration: one week. Detection: 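Descriptive morphology terms assigned by visual inspection of live automated images of GFP-marked cells, taken one week after adding 250 ng dsRNA per well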.
Only reagents picked out of a larger screen are listed. 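Every listed dsRNA shows some phenotype; how reagents were selected for listing is not stated.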 Reagents against one gene are numbered here. A plus sign joins genes that one reagent is predicted to hit.

predicted target,dsRNA no.,"phenotype seen, replicate 1","phenotype seen, replicate 2"
CG10205,1,fewer cells,
ppk13 (pickpocket 13),1,axon bundles split apart,
CG42527 (retired record) + Hr4,1,axon bundles split apart,
pnt (pointed),1,reduced axon outgrowth,
Acp53C14c (Accessory gland protein 53C14c),1,too many neurite branches,
Wnt2 (Wnt oncogene analog 2),1,beaded; swollen axons,
Snx3 (Sorting nexin 3),1,abnormal cell clusters,
Hug (Hugin),1,too many neurite branches,
tinc (tincar),1,axon bundles split apart,
tinc (tincar),2,reduced axon outgrowth,
Obp50e (Odorant-binding protein 50e),1,abnormal cell clusters,
CG4278,1,axon bundles split apart,
RpL30 (Ribosomal protein L30),1,too many neurite branches,
ppk (pickpocket),1,axon bundles split apart,
Hrb87F (Heterogeneous nuclear ribonucleoprotein at 87F),1,axon bundles split apart,
rl (rolled),1,axon bundles split apart,
TwdlT (TweedleT),1,axon bundles split apart,
CG13332,1,abnormal cell clusters,
Rpn12 (Regulatory particle non-ATPase 12),1,too many neurite branches,
Ipk1 (Inositol phosphate kinase 1),1,too many neurite branches,
Ipk1 (Inositol phosphate kinase 1),2,axon bundles split apart,
PGAP3 (Post-GPI attachment to proteins 3),1,too many neurite branches,
"IP3K2 (Inositol 1,4,5-triphosphate kinase 2)",1,abnormal cell clusters,
Prosalpha1R + Prosalpha1,1,weaker green signal,
sphinx2,1,beaded; swollen axons,
RpL6 (Ribosomal protein L6),1,too many neurite branches,
RpL6 (Ribosomal protein L6),2,too many neurite branches,axon bundles split apart
Vha100-5 (Vacuolar H[+] ATPase 100kD subunit 5),1,fewer cells,
CG30026,1,axon bundles split apart,
Spc25,1,sheet-like cell extensions,
CG17002,1,axon bundles split apart,
CG7115,1,too many neurite branches,
Dtwd2 + Obp84a,1,axon bundles split apart,
Rs1,1,axon bundles split apart,
Scr (Sex combs reduced),1,sheet-like cell extensions,
Hel89B (Helicase 89B),1,abnormal cell clusters,
Plekhm1 (Pleckstrin homology and RUN domain containing M1),1,axon bundles split apart,
bru2 (bruno 2),1,axon bundles split apart,
ush (u-shaped),1,reduced axon outgrowth,
CG32199,1,reduced axon outgrowth,
dsb (debris buster),1,abnormal cell clusters,
ps (pasilla),1,abnormal cell clusters,
CG4511,1,axon bundles split apart,
CG5681,1,abnormal cell clusters,
Ir51a (Ionotropic receptor 51a),1,fewer cells,
Cep290 (Centrosomal protein 290kDa),1,abnormal cell clusters,
CG14492,1,too many neurite branches,
His3:CG33818 + His3:CG33815 + His3:CG33857 + 20 more,1,axon bundles split apart,
twr (twisted bristles roughened eye),1,beaded; swollen axons,
CG3699,1,axon bundles split apart,
Polr3I (RNA polymerase III subunit I),1,cell fragments present,
MnM (myomesin and myosin binding protein),1,too many neurite branches,
DIP-beta (Dpr-interacting protein beta),1,axon bundles split apart,
Ctr9,1,too many neurite branches,
ect (ectodermal),1,axon bundles split apart,
ect (ectodermal),2,sheet-like cell extensions,
Sap30 (SIN3-associated polypeptide 30),1,too many neurite branches,
Ugt303B2 (UDP-glycosyltransferase family 303 member B2),1,too many neurite branches,
lva (lava lamp),1,sheet-like cell extensions,
CG12914,1,too many neurite branches,
Ost48 (Oligosaccharyltransferase 48kD subunit),1,too many neurite branches,
CG13814 (retired record),1,too many neurite branches,
Rok (Rho kinase),1,too many neurite branches,
CG32547,1,axon bundles split apart,
CG4641 (retired record),1,axon bundles split apart,
CG9875,1,axon bundles split apart,
Cyfip (Cytoplasmic FMR1 interacting protein),1,abnormal cell clusters,
RpL26 (Ribosomal protein L26),1,beaded; swollen axons,
fand (fandango),1,beaded; swollen axons,
Nipped-B,1,too many neurite branches,
Osi24 (Osiris 24),1,too many neurite branches,
eIF3g1 (eukaryotic translation initiation factor 3 subunit g1),1,cell fragments present,
peg (pegasus),1,too many neurite branches,
CG15831 (retired record),1,fewer cells,
CG15412,1,too many neurite branches,
Polr1A (RNA polymerase I subunit A),1,axon bundles split apart,
NaPi-III (Na[+]-dependent inorganic phosphate cotransporter type III),1,fewer cells,
NaPi-III (Na[+]-dependent inorganic phosphate cotransporter type III),2,fewer cells,fewer cells
CG6149,1,cell fragments present,
CG8578,1,cell fragments present,
Sap-r (Saposin-related),1,reduced axon outgrowth,
galla-1,1,beaded; swollen axons,
M1BP (Motif 1 Binding Protein),1,abnormal cell clusters,
E(bx) (Enhancer of bithorax),1,abnormal cell clusters,
Spps (Sp1-like factor for pairing sensitive-silencing),1,axon bundles split apart,
CG12862,1,fewer cells,
Dop1R1 (Dopamine 1-like receptor 1),1,axon bundles split apart,
CG13437,1,axon bundles split apart,
Diap1 (Death-associated inhibitor of apoptosis 1),1,fewer cells,
psh (persephone),1,weaker green signal,
G9a,1,beaded; swollen axons,
Rlip (Ral interacting protein),1,axon bundles split apart,
CG5516,1,too many neurite branches,
CG12912,1,axon bundles split apart,
jp (junctophilin),1,sheet-like cell extensions,
nau (nautilus),1,reduced axon outgrowth,
CG13920,1,too many neurite branches,
Dh44 (Diuretic hormone 44),1,axon bundles split apart,
mon2 (monensin sensitivity 2),1,too many neurite branches,
CG42382,1,abnormal cell clusters,
Ent3 (Equilibrative nucleoside transporter 3),1,abnormal cell clusters,
srw (shrew),1,too many neurite branches,
RpL31 (Ribosomal protein L31),1,weaker green signal,
CG17292,1,axon bundles split apart,
CG32532,1,reduced axon outgrowth,
"morgue (modifier of rpr and grim, ubiquitously expressed)",1,axon bundles split apart,
CG13723,1,axon bundles split apart,too many neurite branches
dpr10 (defective proboscis extension response 10),1,too many neurite branches,too many neurite branches
dpr10 (defective proboscis extension response 10),2,too many neurite branches,

Already shown: entries from further up.
predicted target,dsRNA no.,"phenotype seen, replicate 1","phenotype seen, replicate 2"
Hug (Hugin),1,too many neurite branches,
tinc (tincar),1,axon bundles split apart,
tinc (tincar),2,reduced axon outgrowth,
Obp50e (Odorant-binding protein 50e),1,abnormal cell clusters,
CG4278,1,axon bundles split apart,
RpL30 (Ribosomal protein L30),1,too many neurite branches,
ppk (pickpocket),1,axon bundles split apart,
Hrb87F (Heterogeneous nuclear ribonucleoprotein at 87F),1,axon bundles split apart,
rl (rolled),1,axon bundles split apart,
